These are yes or no findings as the source states them, for the method shown. In cells and extracts the contact can be indirect. Some entries that bind do so weakly or less than the wild type. For some of these results: Tags and fused reporters may be left off the sequences shown.
Assays:
[1] = molecular target: cyclin-dependent kinase inhibitor 1B (CDKN1B or P27KIP1) (human (endogenous in MDA-MB-231)) (UniProt P46527); assay: co-IP; lysosomal extracts of MDA-MB-231 cells transfected with the indicated constructs; IP of P27KIP1, immunoblotting against P27KIP1, TRIM21 and LAMTOR1
[2] = molecular target: T1, Flag-tagged hSPAR (human small regulatory polypeptide of amino acid response) (human); assay: co-IP; MDA-MB-231 cells transfected with Vector Ctrl, ΔATG1+2, Flag-hSPAR or Flag-hSPAR-C; IP lysis buffer (20 mM Tris-HCl pH 8.0, 137 mM NaCl, 1% Nonidet P-40, 2 mM EDTA); IP with antibodies to TRIM21, Flag, P27KIP1 or LAMTOR1 overnight at 4 °C, protein A/G agarose; immunoblotting
T1 sequence: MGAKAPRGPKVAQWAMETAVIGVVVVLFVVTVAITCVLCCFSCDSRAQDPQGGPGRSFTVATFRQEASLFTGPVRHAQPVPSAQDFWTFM

Amino acid sequences for entries named in this document (tags omitted).
UniProt P46527: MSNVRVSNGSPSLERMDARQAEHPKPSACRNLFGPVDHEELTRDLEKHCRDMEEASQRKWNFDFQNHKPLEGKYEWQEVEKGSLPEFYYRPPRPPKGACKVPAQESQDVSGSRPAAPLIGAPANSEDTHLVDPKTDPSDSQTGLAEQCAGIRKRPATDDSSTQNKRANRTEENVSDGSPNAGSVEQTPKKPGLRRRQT
UniProt Q6IAA8: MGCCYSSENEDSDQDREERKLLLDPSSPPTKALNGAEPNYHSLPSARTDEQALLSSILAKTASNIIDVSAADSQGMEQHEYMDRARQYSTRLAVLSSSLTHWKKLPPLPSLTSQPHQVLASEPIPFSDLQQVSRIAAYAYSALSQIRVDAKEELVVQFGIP
UniProt P19474: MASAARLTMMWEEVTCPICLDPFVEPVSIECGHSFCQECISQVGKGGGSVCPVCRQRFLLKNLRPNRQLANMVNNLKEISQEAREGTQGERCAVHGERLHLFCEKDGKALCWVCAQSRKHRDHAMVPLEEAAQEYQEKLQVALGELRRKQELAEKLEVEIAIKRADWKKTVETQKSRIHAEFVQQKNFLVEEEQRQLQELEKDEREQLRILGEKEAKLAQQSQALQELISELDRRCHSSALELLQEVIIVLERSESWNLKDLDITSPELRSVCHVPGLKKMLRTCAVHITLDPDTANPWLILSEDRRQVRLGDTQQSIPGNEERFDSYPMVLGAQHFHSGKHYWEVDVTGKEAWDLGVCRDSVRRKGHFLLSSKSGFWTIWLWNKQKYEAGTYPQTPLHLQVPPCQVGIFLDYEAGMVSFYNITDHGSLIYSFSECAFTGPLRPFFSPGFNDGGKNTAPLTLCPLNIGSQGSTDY

[3] = molecular target: LAMTOR1 (human (endogenous in MDA-MB-231)) (UniProt Q6IAA8); assay: as above
[4] = molecular target: Tripartite motif-containing 21 (TRIM21) (human (endogenous in MDA-MB-231)) (UniProt P19474); assay: as above

binding [2]	binding [3]	binding [4]	Substance	binding [1]
binds			Tripartite motif-containing 21 (TRIM21) (from UniProt P19474 1-475)	no binding (condition: lysosomal extracts)
	binds	binds	cyclin-dependent kinase inhibitor 1B (CDKN1B or P27KIP1) (from UniProt P46527 1-198)	

From article PMC11876615
